Data published in article PMC6223059.

The chains behind the UniProt entries cited, without tags or fusion partners.
UniProt Q921F2: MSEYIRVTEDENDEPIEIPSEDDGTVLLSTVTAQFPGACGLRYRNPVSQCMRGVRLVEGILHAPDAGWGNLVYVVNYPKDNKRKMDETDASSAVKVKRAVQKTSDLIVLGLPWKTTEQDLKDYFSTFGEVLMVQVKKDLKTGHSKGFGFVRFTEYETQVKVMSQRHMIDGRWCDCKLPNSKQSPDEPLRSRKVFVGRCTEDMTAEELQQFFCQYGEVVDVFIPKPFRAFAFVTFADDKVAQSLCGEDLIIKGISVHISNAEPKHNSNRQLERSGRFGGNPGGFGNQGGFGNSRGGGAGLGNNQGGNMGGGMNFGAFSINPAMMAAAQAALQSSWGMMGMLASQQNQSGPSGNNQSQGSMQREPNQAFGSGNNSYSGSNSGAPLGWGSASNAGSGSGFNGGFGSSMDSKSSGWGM

Biological target: T1, endogenous Znf179 (mouse brain) (mouse (endogenous in mouse brain)) (UniProt Q96DY5)
T1 sequence: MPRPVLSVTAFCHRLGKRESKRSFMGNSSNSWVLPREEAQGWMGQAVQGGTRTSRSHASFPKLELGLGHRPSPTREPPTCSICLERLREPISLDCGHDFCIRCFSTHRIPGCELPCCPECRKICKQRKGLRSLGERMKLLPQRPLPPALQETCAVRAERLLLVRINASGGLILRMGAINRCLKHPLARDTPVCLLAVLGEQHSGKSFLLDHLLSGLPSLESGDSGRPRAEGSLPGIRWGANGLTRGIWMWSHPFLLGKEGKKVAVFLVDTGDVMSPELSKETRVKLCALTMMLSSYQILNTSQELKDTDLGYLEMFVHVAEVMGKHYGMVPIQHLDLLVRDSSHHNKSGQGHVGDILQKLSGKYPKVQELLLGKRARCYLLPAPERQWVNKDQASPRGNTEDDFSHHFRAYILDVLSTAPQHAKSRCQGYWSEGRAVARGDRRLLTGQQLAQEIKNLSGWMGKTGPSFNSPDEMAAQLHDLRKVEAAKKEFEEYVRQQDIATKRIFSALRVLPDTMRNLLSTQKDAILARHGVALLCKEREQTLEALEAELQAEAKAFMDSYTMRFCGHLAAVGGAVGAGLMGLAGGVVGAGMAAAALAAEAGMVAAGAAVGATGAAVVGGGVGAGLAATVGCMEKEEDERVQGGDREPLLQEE
Assay: affinity purification with mass spectrometry; whole brain lysates of wild-type and Znf179 knockout mice immunoprecipitated with anti-Znf179 antibody, SDS-PAGE, bands excised, in-gel trypsin digestion, LTQ Orbitrap XL, Mascot

In the case of “endogenous TDP-43 (mouse brain) (from UniProt Q921F2 1-414)”, the binding was “binds”.

No constants are given. Whether binding was seen depends on the method and setting. In cells and extracts the contact can be indirect. A yes stands for co-enrichment or nearness to the bait. Other partners may have been found.
